We go through five molecules from paper PMC4658663.

Protein sequences, listed by entry. Tags and fused reporters are not part of them. Lines headed by an entry give the natural chain unless they say otherwise; changes in a name come on top.
UniProt P49682: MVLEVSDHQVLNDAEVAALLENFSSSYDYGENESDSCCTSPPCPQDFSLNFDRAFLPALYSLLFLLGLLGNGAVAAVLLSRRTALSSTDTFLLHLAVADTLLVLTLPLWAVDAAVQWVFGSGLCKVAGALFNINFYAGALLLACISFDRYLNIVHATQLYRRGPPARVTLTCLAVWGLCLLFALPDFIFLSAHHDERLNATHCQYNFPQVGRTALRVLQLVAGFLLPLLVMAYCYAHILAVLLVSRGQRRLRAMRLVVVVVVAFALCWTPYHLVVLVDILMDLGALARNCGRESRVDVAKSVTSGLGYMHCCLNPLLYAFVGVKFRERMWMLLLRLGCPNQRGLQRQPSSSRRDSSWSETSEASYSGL
UniProt P30874: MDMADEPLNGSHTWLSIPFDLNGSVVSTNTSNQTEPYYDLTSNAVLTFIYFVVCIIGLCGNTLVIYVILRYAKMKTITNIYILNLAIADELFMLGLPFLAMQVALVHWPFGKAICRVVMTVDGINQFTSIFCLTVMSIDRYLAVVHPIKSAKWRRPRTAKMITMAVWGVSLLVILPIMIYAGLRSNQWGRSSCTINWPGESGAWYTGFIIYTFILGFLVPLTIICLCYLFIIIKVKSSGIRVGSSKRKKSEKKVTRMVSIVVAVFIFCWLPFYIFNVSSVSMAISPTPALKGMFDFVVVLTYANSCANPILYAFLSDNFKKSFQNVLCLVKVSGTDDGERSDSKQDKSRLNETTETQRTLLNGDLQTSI
UniProt P31391: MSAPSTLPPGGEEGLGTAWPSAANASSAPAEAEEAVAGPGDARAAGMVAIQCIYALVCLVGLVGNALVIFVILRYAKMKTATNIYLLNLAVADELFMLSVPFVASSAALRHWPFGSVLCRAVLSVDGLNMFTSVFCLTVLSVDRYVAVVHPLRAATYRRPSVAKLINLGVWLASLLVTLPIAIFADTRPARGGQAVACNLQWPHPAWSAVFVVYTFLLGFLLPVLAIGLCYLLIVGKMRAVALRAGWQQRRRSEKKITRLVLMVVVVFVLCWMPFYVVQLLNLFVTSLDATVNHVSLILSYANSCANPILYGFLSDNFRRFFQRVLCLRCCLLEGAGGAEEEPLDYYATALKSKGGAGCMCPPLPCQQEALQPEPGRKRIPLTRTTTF
UniProt P47900: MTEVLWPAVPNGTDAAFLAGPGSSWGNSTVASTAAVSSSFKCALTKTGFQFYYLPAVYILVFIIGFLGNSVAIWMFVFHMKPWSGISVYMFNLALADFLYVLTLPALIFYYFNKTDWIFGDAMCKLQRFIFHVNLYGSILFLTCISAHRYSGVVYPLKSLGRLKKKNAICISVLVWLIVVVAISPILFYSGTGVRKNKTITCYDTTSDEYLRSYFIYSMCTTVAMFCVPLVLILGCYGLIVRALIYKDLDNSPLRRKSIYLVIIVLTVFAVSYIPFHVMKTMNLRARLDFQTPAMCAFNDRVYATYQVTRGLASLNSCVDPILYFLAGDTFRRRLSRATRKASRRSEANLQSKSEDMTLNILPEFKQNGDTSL
UniProt Q9H244: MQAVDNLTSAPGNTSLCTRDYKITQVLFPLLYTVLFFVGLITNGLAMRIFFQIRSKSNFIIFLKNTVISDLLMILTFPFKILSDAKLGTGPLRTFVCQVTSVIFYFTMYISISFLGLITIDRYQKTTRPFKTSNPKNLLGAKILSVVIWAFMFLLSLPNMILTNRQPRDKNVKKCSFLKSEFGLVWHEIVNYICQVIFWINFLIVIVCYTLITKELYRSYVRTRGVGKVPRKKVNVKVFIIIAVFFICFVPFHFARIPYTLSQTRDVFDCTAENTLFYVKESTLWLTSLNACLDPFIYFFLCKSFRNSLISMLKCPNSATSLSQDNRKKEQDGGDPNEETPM
UniProt P25100: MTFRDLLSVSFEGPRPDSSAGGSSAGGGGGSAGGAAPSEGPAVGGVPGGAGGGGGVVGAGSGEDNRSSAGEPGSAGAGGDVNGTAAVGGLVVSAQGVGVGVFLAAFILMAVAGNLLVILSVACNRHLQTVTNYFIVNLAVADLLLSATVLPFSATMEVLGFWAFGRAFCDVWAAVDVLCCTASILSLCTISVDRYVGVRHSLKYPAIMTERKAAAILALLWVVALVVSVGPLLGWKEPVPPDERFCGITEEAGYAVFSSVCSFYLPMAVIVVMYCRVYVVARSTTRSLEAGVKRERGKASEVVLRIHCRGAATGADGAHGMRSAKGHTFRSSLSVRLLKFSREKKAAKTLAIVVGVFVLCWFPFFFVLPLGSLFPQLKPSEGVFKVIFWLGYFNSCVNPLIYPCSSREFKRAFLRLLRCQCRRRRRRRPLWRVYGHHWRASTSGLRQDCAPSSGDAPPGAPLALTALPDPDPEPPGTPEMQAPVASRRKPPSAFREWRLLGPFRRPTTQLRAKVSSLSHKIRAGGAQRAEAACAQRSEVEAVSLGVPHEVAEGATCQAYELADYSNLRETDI
UniProt P25025: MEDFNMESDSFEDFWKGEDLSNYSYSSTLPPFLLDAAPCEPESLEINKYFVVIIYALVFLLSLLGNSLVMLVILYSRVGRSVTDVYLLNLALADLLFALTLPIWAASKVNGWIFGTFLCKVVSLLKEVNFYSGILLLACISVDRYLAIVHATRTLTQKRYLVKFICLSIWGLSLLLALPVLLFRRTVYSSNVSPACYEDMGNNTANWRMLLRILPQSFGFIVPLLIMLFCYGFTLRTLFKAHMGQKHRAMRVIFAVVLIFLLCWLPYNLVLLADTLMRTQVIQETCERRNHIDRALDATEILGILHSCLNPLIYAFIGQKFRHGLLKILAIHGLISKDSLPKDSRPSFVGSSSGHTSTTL
UniProt Q969V1: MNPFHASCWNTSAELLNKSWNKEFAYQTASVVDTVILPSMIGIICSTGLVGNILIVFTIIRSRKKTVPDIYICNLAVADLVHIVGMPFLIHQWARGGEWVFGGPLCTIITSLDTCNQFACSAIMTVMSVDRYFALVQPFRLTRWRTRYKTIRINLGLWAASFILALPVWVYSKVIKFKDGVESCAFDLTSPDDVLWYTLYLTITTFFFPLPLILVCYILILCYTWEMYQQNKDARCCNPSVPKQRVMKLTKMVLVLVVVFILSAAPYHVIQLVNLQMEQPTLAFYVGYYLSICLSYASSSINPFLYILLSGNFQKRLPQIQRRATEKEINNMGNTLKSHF
UniProt P35346: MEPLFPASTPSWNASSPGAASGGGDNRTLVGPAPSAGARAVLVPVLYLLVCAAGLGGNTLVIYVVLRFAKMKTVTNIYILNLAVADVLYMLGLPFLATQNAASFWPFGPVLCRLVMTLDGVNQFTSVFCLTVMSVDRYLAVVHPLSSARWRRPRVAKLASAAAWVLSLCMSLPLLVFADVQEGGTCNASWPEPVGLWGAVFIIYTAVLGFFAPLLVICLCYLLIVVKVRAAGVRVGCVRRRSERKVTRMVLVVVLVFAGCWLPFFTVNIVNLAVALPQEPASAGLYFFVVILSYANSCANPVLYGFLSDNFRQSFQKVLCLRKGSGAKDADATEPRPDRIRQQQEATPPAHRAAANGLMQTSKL
UniProt P41595: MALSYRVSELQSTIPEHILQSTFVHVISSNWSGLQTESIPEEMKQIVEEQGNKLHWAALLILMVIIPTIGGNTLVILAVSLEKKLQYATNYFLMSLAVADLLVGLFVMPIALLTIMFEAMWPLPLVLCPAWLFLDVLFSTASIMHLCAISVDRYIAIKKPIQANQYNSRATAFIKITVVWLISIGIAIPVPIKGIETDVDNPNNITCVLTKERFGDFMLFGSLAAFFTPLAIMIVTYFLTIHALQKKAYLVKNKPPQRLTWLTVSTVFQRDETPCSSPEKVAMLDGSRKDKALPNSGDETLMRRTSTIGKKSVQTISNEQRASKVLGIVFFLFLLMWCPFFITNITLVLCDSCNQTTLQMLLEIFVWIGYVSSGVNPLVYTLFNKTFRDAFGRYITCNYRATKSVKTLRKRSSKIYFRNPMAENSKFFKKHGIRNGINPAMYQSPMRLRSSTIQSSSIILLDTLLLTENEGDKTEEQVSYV
UniProt P30872: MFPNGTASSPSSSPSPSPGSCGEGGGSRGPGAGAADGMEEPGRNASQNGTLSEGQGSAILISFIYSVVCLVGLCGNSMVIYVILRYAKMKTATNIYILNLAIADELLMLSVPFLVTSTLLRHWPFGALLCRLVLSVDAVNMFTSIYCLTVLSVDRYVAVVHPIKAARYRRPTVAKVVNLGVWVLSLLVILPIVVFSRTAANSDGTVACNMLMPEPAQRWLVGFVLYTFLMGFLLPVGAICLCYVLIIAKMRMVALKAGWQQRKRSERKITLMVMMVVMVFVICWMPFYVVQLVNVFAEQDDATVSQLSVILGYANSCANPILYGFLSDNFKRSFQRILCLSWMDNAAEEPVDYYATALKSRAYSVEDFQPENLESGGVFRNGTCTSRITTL
UniProt Q13425: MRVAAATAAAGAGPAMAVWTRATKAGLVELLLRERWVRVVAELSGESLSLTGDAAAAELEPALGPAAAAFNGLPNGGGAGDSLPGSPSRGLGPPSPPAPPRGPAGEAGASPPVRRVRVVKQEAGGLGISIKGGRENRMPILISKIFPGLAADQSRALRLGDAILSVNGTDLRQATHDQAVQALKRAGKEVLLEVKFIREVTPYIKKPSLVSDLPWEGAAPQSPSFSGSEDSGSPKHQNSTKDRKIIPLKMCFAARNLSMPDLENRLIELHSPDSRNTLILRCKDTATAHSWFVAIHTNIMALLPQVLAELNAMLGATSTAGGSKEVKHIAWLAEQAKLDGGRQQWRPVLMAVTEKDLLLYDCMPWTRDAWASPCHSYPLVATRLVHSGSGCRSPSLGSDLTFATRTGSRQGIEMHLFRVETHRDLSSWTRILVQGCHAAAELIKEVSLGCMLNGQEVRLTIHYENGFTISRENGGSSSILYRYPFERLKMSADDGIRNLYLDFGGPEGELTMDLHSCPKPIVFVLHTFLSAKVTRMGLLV
UniProt Q14160: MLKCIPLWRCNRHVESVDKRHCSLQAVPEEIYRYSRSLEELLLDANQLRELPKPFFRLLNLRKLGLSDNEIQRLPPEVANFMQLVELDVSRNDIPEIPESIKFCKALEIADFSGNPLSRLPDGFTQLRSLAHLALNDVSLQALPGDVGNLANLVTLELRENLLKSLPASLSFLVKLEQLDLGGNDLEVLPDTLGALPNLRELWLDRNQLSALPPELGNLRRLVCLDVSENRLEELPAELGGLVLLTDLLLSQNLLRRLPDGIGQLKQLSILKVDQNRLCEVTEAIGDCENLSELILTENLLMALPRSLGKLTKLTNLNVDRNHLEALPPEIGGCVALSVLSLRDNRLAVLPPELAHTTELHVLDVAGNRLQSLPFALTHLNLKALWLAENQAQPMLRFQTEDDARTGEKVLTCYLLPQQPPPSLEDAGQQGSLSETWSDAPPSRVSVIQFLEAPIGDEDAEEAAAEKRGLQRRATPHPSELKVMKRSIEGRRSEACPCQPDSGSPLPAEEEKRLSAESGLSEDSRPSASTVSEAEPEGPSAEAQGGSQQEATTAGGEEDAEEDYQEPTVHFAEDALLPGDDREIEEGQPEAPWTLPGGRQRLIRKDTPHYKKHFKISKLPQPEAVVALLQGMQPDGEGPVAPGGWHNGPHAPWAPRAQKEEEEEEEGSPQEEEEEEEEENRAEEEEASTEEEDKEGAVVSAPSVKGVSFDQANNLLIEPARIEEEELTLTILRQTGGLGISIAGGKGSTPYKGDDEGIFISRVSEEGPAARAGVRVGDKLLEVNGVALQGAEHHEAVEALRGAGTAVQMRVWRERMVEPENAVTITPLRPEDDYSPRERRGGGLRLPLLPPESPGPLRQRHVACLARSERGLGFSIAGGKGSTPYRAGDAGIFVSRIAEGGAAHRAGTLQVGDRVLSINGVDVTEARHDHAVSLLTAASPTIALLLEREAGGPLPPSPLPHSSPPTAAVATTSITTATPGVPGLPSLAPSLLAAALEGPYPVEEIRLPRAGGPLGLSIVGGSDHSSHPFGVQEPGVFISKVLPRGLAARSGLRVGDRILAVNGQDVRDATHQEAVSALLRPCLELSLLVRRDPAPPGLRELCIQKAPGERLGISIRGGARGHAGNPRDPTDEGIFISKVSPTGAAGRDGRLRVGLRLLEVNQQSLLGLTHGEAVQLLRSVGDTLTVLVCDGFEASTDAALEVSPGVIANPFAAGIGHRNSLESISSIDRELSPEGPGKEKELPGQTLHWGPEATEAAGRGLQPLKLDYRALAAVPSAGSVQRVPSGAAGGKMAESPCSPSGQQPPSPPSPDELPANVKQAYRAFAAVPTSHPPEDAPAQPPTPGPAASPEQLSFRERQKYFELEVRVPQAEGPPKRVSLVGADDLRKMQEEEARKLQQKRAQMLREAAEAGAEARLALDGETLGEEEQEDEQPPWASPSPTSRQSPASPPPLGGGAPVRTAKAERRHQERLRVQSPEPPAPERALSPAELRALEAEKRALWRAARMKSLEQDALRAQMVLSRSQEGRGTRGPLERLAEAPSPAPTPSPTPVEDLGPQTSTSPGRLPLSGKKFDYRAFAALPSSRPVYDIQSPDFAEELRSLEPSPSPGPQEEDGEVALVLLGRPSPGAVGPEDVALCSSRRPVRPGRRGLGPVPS

What all share (test): affinity purification with mass spectrometry; TAP/MS; TAP-tagged bait transfected alone (or with empty vector) in HEK293T cells; TEV cleavage omitted; eluates on Velos-Pro Orbitrap Elite; protein FDR 2.5%
Assay [1] deals with CXCR3 (chemokine receptor), TAP-tagged (human) (UniProt P49682).
Assay [2] deals with SSTR2 (somatostatin receptor 2), TAP-tagged (human) (UniProt P30874).
For assay [3], the target named is SSTR4 (somatostatin receptor 4), TAP-tagged (human) (UniProt P31391).
The target of assay [4] is P2RY1 (P2Y purinergic receptor 1), TAP-tagged (human) (UniProt P47900).
Assay [5] addresses P2RY12 (P2Y purinergic receptor 12), TAP-tagged (human) (UniProt Q9H244).
Assay [6] addresses LPAR2 (lysophosphatidic acid type 2 receptor), TAP-tagged (human) (UniProt Q9HBW0).
Another assay concerns the target TAP–ADRA1D (human) (UniProt P25100).
Assay [7] has as its target HRH3 (histamine type 3 receptor), TAP-tagged (human) (UniProt Q9Y5N1).
The target in assay [8] is CXCR2 (chemokine receptor), TAP-tagged (human) (UniProt P25025).
Assay [9] deals with HTR2C (5-hydroxytryptamine type 2C receptor), TAP-tagged (human) (UniProt P28335).
For assay [10], the target named is MCHR2 (melanin-concentrating hormone type 2 receptor), TAP-tagged (human) (UniProt Q969V1).
Assay [11] concerns the target SSTR5 (somatostatin receptor 5), TAP-tagged (human) (UniProt P35346).
For assay [12], the target named is T1, MAS1 (proto-oncogene MAS type I), TAP-tagged (human) (UniProt P04201).
T1 sequence: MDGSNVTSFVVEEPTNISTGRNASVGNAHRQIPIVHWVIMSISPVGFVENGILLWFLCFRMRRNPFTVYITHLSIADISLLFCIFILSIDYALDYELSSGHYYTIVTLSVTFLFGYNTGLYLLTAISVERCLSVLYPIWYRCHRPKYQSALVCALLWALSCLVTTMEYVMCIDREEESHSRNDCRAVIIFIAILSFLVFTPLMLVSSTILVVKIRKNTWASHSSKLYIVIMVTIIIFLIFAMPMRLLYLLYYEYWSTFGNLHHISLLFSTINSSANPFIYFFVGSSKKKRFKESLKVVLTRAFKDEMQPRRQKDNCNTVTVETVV

Assay [13] concerns the target HTR2B (5-hydroxytryptamine type 2B receptor), TAP-tagged (human) (UniProt P41595).
In assay [14] the target is SSTR1 (somatostatin receptor 1), TAP-tagged (human) (UniProt P30872).
The target in assay [15] is T2, GALR1 (galanin type I receptor), TAP-tagged (human) (UniProt P47211).
T2 sequence: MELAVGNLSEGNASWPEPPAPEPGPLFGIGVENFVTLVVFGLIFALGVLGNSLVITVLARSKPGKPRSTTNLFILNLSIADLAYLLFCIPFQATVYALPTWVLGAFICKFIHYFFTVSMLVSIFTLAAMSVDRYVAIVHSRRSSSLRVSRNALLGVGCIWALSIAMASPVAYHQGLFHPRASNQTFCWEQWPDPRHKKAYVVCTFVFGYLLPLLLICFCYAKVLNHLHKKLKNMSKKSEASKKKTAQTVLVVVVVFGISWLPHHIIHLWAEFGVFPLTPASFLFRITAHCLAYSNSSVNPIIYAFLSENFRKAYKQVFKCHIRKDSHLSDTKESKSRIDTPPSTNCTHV

Results are given in words; binding and its absence hold for the method and conditions named. Binding seen in cells or lysates may run through a third protein. A yes stands for co-enrichment or nearness to the bait. Other partners may have been found. For some assays here: No binding means not detected with the bait. For some assays here: Where a sequence is shown, tags or fusion partners need not be part of it.

On to SNTB2 (from UniProt Q13425 1-540), for which the binding entry in [1], in [2], in [3], in assay [4], in [5] and in [6] was “no binding” each time. Further, the binding result in the assay with TAP–ADRA1D (human) is “binds”; in [7], “no binding”; in assay [8], “no binding”; in assay [9], “no binding”; in assay [10], “no binding”; in assay [11], “no binding”. Besides, the binding result in [12], in assay [13], in assay [14] and in [15] was “no binding” in each case.
With “Scribble (SCRIB), endogenous (from UniProt Q14160 1-1655)”, the binding result in [1], in assay [2], in assay [3], in [4], in assay [5] and in assay [6] was “no binding” in each case. In addition, the binding result with TAP–ADRA1D (human) is recorded as “binds”; in assay [7], “no binding”; in assay [8], “no binding”; in assay [9] it was “no binding”; in [10] it was “no binding”; in [11], “no binding”. Moreover, the binding entry in assay [12], in assay [13], in assay [14] and in [15] was “no binding” in each case.
With “dystrophin (DMD) (from UniProt P11532 1-3685)”, the binding entry in [1], in [2], in assay [3], in [4], in assay [5] and in assay [6] was “no binding” in each case. The binding result with TAP–ADRA1D (human) is recorded as “binds”; in assay [7] it was “no binding”; in assay [8], “no binding”; in assay [9], “no binding”; in [10], “no binding”; in [11], “no binding”. Also, the binding entry in [12], in [13], in assay [14] and in assay [15] was “no binding” throughout.
Consider “utrophin (UTRN) (from UniProt P46939 1-3433)”, for which the binding result in assay [1], in assay [2], in assay [3], in assay [4], in [5] and in assay [6] was “no binding” each time. The binding entry with TAP–ADRA1D (human) was “binds”; in assay [7], “no binding”; in assay [8], “no binding”; in assay [9], “no binding”; in [10], “no binding”; in [11] it was “no binding”. In addition, the binding result in [12], in [13], in assay [14] and in assay [15] was “no binding” throughout.

B1: SNTB1 (protein, UniProt Q13884 1-538)
chain: MAVAAAAAAAGPAGAGGGRAQRSGLLEVLVRDRWHKVLVNLSEDALVLSSEEGAAAYNGIGTATNGSFCRGAGAGHPGAGGAQPPDSPAGVRTAFTDLPEQVPESISNQKRGVKVLKQELGGLGISIKGGKENKMPILISKIFKGLAADQTQALYVGDAILSVNGADLRDATHDEAVQALKRAGKEVLLEVKYMREATPYVKKGSPVSEIGWETPPPESPRLGGSTSDPPSSQSFSFHRDRKSIPLKMCYVTRSMALADPENRQLEIHSPDAKHTVILRSKDSATAQAWFSAIHSNVNDLLTRVIAEVREQLGKTGIAGSREIRHLGWLAEKVPGESKKQWKPALVVLTEKDLLIYDSMPRRKEAWFSPVHTYPLLATRLVHSGPGKGSPQAGVDLSFATRTGTRQGIETHLFRAETSRDLSHWTRSIVQGCHNSAELIAEISTACTYKNQECRLTIHYENGFSITTEPQEGAFPKTIIQSPYEKLKMSSDDGIRMLYLDFGGKDGEIQLDLHSCPKPIVFIIHSFLSAKITRLGLVA
Take B1: the binding entry in assay [1], in assay [2], in [3], in [4], in assay [5] and in assay [6] was “no binding” in each case. The binding result is given as “binds” with TAP–ADRA1D (human); “no binding” in assay [7]; “no binding” in [8]; “no binding” in assay [9]; “no binding” in [10]; “no binding” in assay [11]. Further, the binding entry in [12], in assay [13], in assay [14] and in [15] was “no binding” in each case.
